108 sequences from PubChem BioAssay AID1347426 (Functional Genomics Laboratory (NCATS/FGL), 2020) can be followed below.

About 1,400 (4.5%) of roughly 31,000 sequences were called active.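 Rule for the calls: active = median seed-adjusted z-score above 1 or below -1; inactive = the rest.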 This is one part of the list.

A short description of the assay: Novel Modifiers of Survival Motor Neuron (SMN) Protein: Gene Identification via Genome-wide siRNA Screen.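 Note: luminescence tracks full-length SMN protein made from the SMN2 reporter.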 Particulars: HEK293T SMN2-luciferase reporter, siRNA knockdown, 72 h; actives lie on both sides. The gist of the method:
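Luciferase signal, proportional to full-length SMN made from an SMN2 cDNA reporter in stable HEK293T cells, was read 72 h after siRNA reverse transfection. Values were expressed as MAD scores after non-targeting-control normalization and log10 conversion; seed analysis flagged off-targets.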
A general note: In a reporter assay the amount or activity of a reporter protein is the signal.
Consider CAGAGGAUUUUAGUCUAUATT against BRAF, for which the median seed-adjusted z-score is inactive: 0.271.

Take AGAUAUAUAAAUCAACGAATT against LSM3: the median seed-adjusted z-score was active: -1.36.

With GCACCAUUGUUUGAAUUGUTT against NUDT21, the median seed-adjusted z-score was inactive: 0.0851.

For the sequence ACACCAACCAUGCUGUUUATT against USP2, the median seed-adjusted z-score is inactive: -0.0321.

Regarding GAACCGAUCACAUAUCAAATT against PIGW, the median seed-adjusted z-score is inactive: -0.242.

GGAACAUUAUUGACAAUCUTT against IDH3B: the median seed-adjusted z-score is inactive: -0.642.

Turning to UGACCGUACAGGUACAGAATT against CIC, the median seed-adjusted z-score is inactive: 0.756.

For AGAUCAAGGUGUACGAGAUTT against KIF26A, the median seed-adjusted z-score is inactive: -0.428.

CCAUGGAGGUACCAACUUUTT against GLB1L: the median seed-adjusted z-score is inactive: -0.263.

For GGUGGAUCUAGUUUCGUAATT against ZFYVE16, the median seed-adjusted z-score was inactive: 0.314.

As for GCGACAUCAUGACGAGUGATT against INPP5D, the median seed-adjusted z-score is inactive: 0.0116.

Turning to GGUCGAGUUCUACUACAAATT against IPO11, the median seed-adjusted z-score is inactive: -0.245.

Consider GAACUGAGAAGGAACGCGATT against TNNT1, for which the median seed-adjusted z-score was inactive: 0.

On to CCUUUAUCAUCAACCUCUUTT against SLC11A1, for which the median seed-adjusted z-score is inactive: -0.516.

For CUACAUAUGUGAGGACUGUTT against ZNF492, the median seed-adjusted z-score is inactive: 0.0668.

In the case of AGACCUGUAUCACAAGUGATT against SIGLEC8, the median seed-adjusted z-score is inactive: 0.0069.

With GAUCCUAGCAAUAACUUCATT against MCCC1, the median seed-adjusted z-score was inactive: 0.298.

Take CGGCAACUGGAACAGACAATT against MYD88: the median seed-adjusted z-score is inactive: -0.365.

For GGCACGAAAGGAUCAAGAATT against IL17RB, the median seed-adjusted z-score was inactive: -0.464.

Consider GCCUAGAAUUUGUAUCCCATT against ATXN2, for which the median seed-adjusted z-score was inactive: 0.

In the case of GGAUCGUUUGGGAAGGUAUTT against PCDHB6, the median seed-adjusted z-score is inactive: 0.

Regarding GCAAGACGGUCAAAAAGGUTT against HTR1A, the median seed-adjusted z-score was inactive: 0.

Regarding CGUGAACAAUGCCUUCAAATT against ACOT11, the median seed-adjusted z-score was inactive: 0.636.

Consider AGAUCGUCCUGACCUUUGATT against PRKACA, for which the median seed-adjusted z-score is inactive: -0.137.

On to GCAGUUCCAUGGUACACCATT against ASAH1, for which the median seed-adjusted z-score was inactive: 0.421.

Take CUGAGAAGAUAGAAGUUAATT against MRPL39: the median seed-adjusted z-score is inactive: 0.355.

As to GCCUGUAAGUUAUUAAAGATT against ARL4D, the median seed-adjusted z-score is inactive: -0.523.

With CGCUGACAGGCUUACACUATT against DPYSL5, the median seed-adjusted z-score is inactive: 0.0624.

For the sequence GCUCCGAUGAUGUAGUUGATT against NSUN5, the median seed-adjusted z-score was inactive: 0.118.

For GCCUUGCUGGAUUGCCUAUTT against CARD18, the median seed-adjusted z-score was inactive: 0.568.

With CCCUUAGACUCUAAGCCCATT against HSD17B14, the median seed-adjusted z-score is inactive: 0.386.

As for GAGAGAUUUUUGAGGUAUATT against IRAK3, the median seed-adjusted z-score was inactive: 0.155.

For the sequence GCCCGGACAGUUUCGACUATT against RASL10A, the median seed-adjusted z-score is inactive: 0.151.

With UGAUUACCAGAUGACCAAATT against ADA, the median seed-adjusted z-score is inactive: -0.242.

As to GGCAAAAACUAUACUCAAATT against MOBKL1A, the median seed-adjusted z-score is inactive: 0.549.

On to CCGAGUUCGUCAACCACUATT against ACVRL1, for which the median seed-adjusted z-score is inactive: -0.361.

With GCUCAACAGUCCCUAGUUATT against RSC1A1, the median seed-adjusted z-score is inactive: 0.438.

Regarding AGUUGAACGAUCUCAAGAATT against TRIM31, the median seed-adjusted z-score is inactive: -0.167.

With GGAGGUUUCUCAAGCCUCATT against SLC28A1, the median seed-adjusted z-score was inactive: 0.129.

As for GAAAGAACUUGGAAGGCAATT against TNP2, the median seed-adjusted z-score is inactive: -0.346.

For the sequence GCCGUGCUGAAGGCUCUAATT against KCNE3, the median seed-adjusted z-score was active: -1.33.

Take GCAAUGUGAGUGUCAUCUATT against MS4A8B: the median seed-adjusted z-score was inactive: 0.207.

For GCACCGACUUUGAUACUGUTT against CABP7, the median seed-adjusted z-score is inactive: -0.268.

GGUACAACACUGUCCUGAATT against ALG12: the median seed-adjusted z-score is inactive: -0.401.

For GGCCGAAUUUAUAAAGGAATT against CHI3L1, the median seed-adjusted z-score was inactive: 0.145.

For the sequence GGACGACGACGAAUACAACTT against NKX6-2, the median seed-adjusted z-score was inactive: 0.101.

On to CCAGGAUGCACAUCCAGAATT against MXD3, for which the median seed-adjusted z-score is inactive: 0.482.

With GAACUUCAAGGAACAUCAUTT against DHRS2, the median seed-adjusted z-score is inactive: 0.35.

Consider GCUUUUAAGUCAUCCUCAATT against ZNF676, for which the median seed-adjusted z-score is inactive: -0.499.

For AUACUGACUUCAUAGAAAATT against RGS2, the median seed-adjusted z-score is inactive: 0.00236.

Take GGGUGGAGACCUAAACUUUTT against ZNF524: the median seed-adjusted z-score is inactive: 0.00173.

Regarding AAACAAUGGUGGACGAACUTT against RAP2A, the median seed-adjusted z-score is inactive: -0.727.

Regarding CCCUGUGACCCGUUCCAUATT against SLC18A3, the median seed-adjusted z-score is inactive: -0.392.

With CUUCGUUUCUGCGAACUAATT against CASP9, the median seed-adjusted z-score was inactive: -0.0982.

In the case of CGAAUCAUGAGAACUAAUATT against MMP27, the median seed-adjusted z-score is inactive: -0.084.

As for GAUCUUGGAUGGAUUGCUATT against OCA2, the median seed-adjusted z-score was inactive: 0.457.

With GAUACUAUCGGGAUCAUAATT against LAMA3, the median seed-adjusted z-score is inactive: 0.534.

On to GGGAUAUGAUAGAUCCUUATT against CPO, for which the median seed-adjusted z-score was inactive: 0.0875.

AGAGUUCCUCAGUUUAAUATT against ANP32B: the median seed-adjusted z-score was inactive: 0.

As for GAAAAUUACUGGAAGAGAATT against KCNJ3, the median seed-adjusted z-score was inactive: -0.0229.

Turning to CGAACCACGUGUACCAAGATT against CST3, the median seed-adjusted z-score was inactive: -0.188.

Take GCAUUGCUCCAAAAUACGATT against PRPS1L1: the median seed-adjusted z-score is inactive: 0.

Turning to CCUGAUUUCUUGUGAUACATT against DNAJC24, the median seed-adjusted z-score was inactive: -0.0166.

GCAGUUCAGGAGCUAGAAATT against PGPEP1: the median seed-adjusted z-score is inactive: -0.0356.

AAACAUGACUGGUACGUGUTT against ATP5J2: the median seed-adjusted z-score is inactive: 0.00511.

GAAGUACAGCUCAUGAAUATT against TESK2: the median seed-adjusted z-score is inactive: 0.

As to ACUUCAUAAUGGAGACCAATT against 1-Mar, the median seed-adjusted z-score is inactive: 0.

Regarding GGCUGAAACUCAAUAAGAATT against MSN, the median seed-adjusted z-score was inactive: -0.736.

For the sequence CUGAUAAUGUGGGUCGAGATT against PLSCR2, the median seed-adjusted z-score was inactive: 0.

GCAGAGUCACUUUGACAAUTT against CHRNG: the median seed-adjusted z-score is inactive: 0.221.

GCCUUUCCAUUACCUAGCATT against KEL: the median seed-adjusted z-score was inactive: 0.

GUAUAGACUAUGAUCUAAATT against TRPC4: the median seed-adjusted z-score was inactive: -0.272.

Take AGGUGUACUUGAGCUGUGATT against IGFBP7: the median seed-adjusted z-score was inactive: 0.116.

Regarding CCAUCAUCCCUAAGCGAAUTT against REXO1, the median seed-adjusted z-score was inactive: -0.748.

Take GGCUCCUCCUUAGAGUUCATT against CASP6: the median seed-adjusted z-score is inactive: 0.765.

As for GAACGACACUCAUCACCAATT against CYP2D6, the median seed-adjusted z-score was inactive: -0.0488.

Consider GCAUCACGCUCUCGAAGCATT against PTBP1, for which the median seed-adjusted z-score is inactive: 0.578.

On to GGCCUGUCAUUGUCAUACATT against ABCC12, for which the median seed-adjusted z-score is inactive: 0.204.

With CCAGGUGAAAUGUCAACUATT against HERC5, the median seed-adjusted z-score was inactive: -0.422.

For GAAUUGACAAUCUCAUAGATT against MCCC2, the median seed-adjusted z-score is inactive: -0.0566.

Take CCGCUGAUCCAGAUGCUUATT against HERC6: the median seed-adjusted z-score was inactive: 0.324.

For the sequence CCUUAGAUACUUUUGGUAATT against PECR, the median seed-adjusted z-score was inactive: -0.347.

With GAUGACUACUUAGCUCUAATT against FLJ90650, the median seed-adjusted z-score is inactive: 0.427.

In the case of GACUUGACCGAGCAAUAUATT against RBM4, the median seed-adjusted z-score was inactive: 0.0148.

Turning to GAAAAUUCAACGAGCCAAGTT against ACSM2A, the median seed-adjusted z-score is inactive: -0.178.

As for CCGUCAGUGAGUUCCAUCATT against PAX3, the median seed-adjusted z-score was inactive: 0.0223.

For the sequence GGAUCUUUCUAAACUGCGATT against DDX50, the median seed-adjusted z-score was inactive: 0.359.

Regarding UGACCUUUCCUAUCUAUAATT against MCART6, the median seed-adjusted z-score is inactive: 0.714.

On to GUGUCGCGCCCUACUGAAATT against GJC2, for which the median seed-adjusted z-score is inactive: 0.

For GCCUUCCGAGCAUCACUUUTT against PGK2, the median seed-adjusted z-score is inactive: -0.127.

As for GGCUUUCAUCAGAACAAGATT against SNAI3, the median seed-adjusted z-score is inactive: -0.195.

GGCUUACCAGGAAGCAUUUTT against YWHAB: the median seed-adjusted z-score is inactive: 0.579.

On to CAAUGGCAAAGGGUACGCATT against EVX2, for which the median seed-adjusted z-score is inactive: 0.181.

GCGUGUCAGCUGUUCAUUATT against OSBPL5: the median seed-adjusted z-score was inactive: 0.638.

On to AACAAAAACUGAUGACCAATT against NARF, for which the median seed-adjusted z-score is inactive: -0.346.

Regarding CCAUCUCACUGCAAUGUUUTT against RPP30, the median seed-adjusted z-score is inactive: -0.656.

GCACCUGCACAUUUAAGAATT against TRIM22: the median seed-adjusted z-score is inactive: 0.363.

As for GAAUCUCUGUAGCCGAUGATT against CPA1, the median seed-adjusted z-score is inactive: -0.187.

Consider CCAAGGACGUGGGCAACAUTT against RABIF, for which the median seed-adjusted z-score was inactive: 0.

With CAUUCUCUAUGACAAGUUATT against CCT7, the median seed-adjusted z-score was inactive: -0.246.

For the sequence AGAUUACCAGCAACAUGUUTT against PRSS1, the median seed-adjusted z-score is inactive: -0.0208.

With AGAUGCACGAAGAAGCUUATT against ZNF99, the median seed-adjusted z-score is inactive: 0.0778.

Consider GCAUCUGUCUUACCAGAAUTT against E2F7, for which the median seed-adjusted z-score is inactive: -0.0972.

In the case of GAGUCAGAGUUGGUAGAAATT against FPGT, the median seed-adjusted z-score is inactive: 0.36.

GGACCGGAGCAGUAUAGAATT against TRIM37: the median seed-adjusted z-score was inactive: -0.108.

As to GGCUUAUACAAUGUCAACATT against HOXA7, the median seed-adjusted z-score was inactive: -0.129.

In the case of CCAUCAGUGUGGAUCUGGATT against TBC1D1, the median seed-adjusted z-score is inactive: -0.359.

For the sequence AUUAACAUGUGAUACCUUUTT against LILRA1, the median seed-adjusted z-score was inactive: -0.231.
